Data taken from PubChem BioAssay AID2685 (National Center for Advancing Translational Sciences (NCATS), 2010).
Some of the results follow. Shown are side measurements of this screen, not its main read-out; they come without a call. Compounds called inactive in the main read-out are mostly missing here. The note in brackets gives the kind of curve behind each potency; many fits are weak.

Assay: qHTS Assay for Lipid Storage Modulators in Drosophila S3 Cells;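 as to cell number change: cells counted by Cell Tracker Red CMTPX staining in the red channel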
Settings: BODIPY lipid droplet fluorescence, 18-24 h; for cell number change: measured here: cell count max response, cells fed with added oleic acid
Summary of the method: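 Laser-scanning cytometry quantifies lipid droplet accumulation (500–530 nm total intensity; droplet/cell object ratio) in oleic acid-fed (400 uM added) Drosophila S3 cells treated with a concentration series. 20 uM Triacsin C defined 100% inhibition.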

[1] = measured here: lipid fluorescence (Fed channel) AC50, cells fed with added oleic acid
[2] = measured here: cell number channel AC50, cells fed with added oleic acid

SMILES | cell number change [%] | AC50 [1] | AC50 [2]
CN(C)c1ccnc2sc(C(=O)NCc3ccccc3)c(N)c12 | 19.4 | 1.16 µM [rising, partial curve] | 
O=C(COC(=O)c1ccc(F)cc1F)Nc1cccnc1Cl | 3.88 | 0.164 µM [falling, full curve, poor fit] | 0.116 µM [falling, full curve, poor fit]
NC(=O)[C@@H]1CCNc2c(I)cc([N+](=O)[O-])cc2C(=O)N[C@@H](CCC(=O)O)C(=O)N[C@@H](CO)C(=O)N1 |  | 16.4 µM [rising, partial curve, poor fit] | 
Cc1csc(NC(=O)C2CC(=O)N(c3ccc4c(c3)OCCO4)C2)n1 (centres undefined) | -15.9 | 0.651 µM [rising, single point] | 0.731 µM [rising, single point]
CS(=O)(=O)N1CCC(C(=O)Nc2ccccc2Br)CC1 | 1.46 | 3.26 µM [falling, partial curve] | 
Cc1cc(OCc2nc(-c3ccc(NC(=O)c4cccnc4)cc3)no2)ccc1Cl | 12.6 |  | 
COC(=O)c1cc(C#N)c(=O)[nH]c1C | -14.5 | 6.51 µM [rising, single point] | 3.66 µM [rising, single point]
COc1ccc(N2CCN(C(=O)c3ccc(Br)o3)CC2)cc1 |  | 16.4 µM [rising, single point] | 
O=C(Nc1nc2ccccc2s1)Nc1ccc(F)cc1F | 10.2 | 29.1 µM [rising, single point] | 
COCCN(C(=O)CCC(=O)Nc1cc(C)on1)C(C(=O)NC(C)(C)C)c1ccc(OC)cc1 (centres undefined) | 19 |  | 
CC(=O)Nc1ccc(C)cc1 | -24.9 |  | 
O=C(COC(=O)c1ccccc1C(=O)c1ccc(Cl)c([N+](=O)[O-])c1)NC1CC1 |  | 4.61 µM [falling, single point] | 
CC(=O)c1c(C)[nH]c(C(=O)OCC(=O)Nc2cc(C(F)(F)F)ccc2N2CCOCC2)c1C | -4.87 |  | 
CN(CC(=O)Nc1ccccc1Br)C(=O)c1ccncc1 | 14.6 |  | 3.66 µM [rising, single point]
COc1ccc(OC)c(NS(=O)(=O)Cc2ccccc2)c1 | -1.11 |  | 
CN(C(=O)COc1ccc(S(=O)(=O)N2CCOCC2)cc1[N+](=O)[O-])C1CCS(=O)(=O)C1 (centres undefined) | 17.4 | 2.31 µM [falling, partial curve] | 
O=C(Nc1ccc2c(c1)OCO2)C(c1ccc(Cl)cc1)N1CCC2(CC1)OCCO2 (centres undefined) | -28 | 20.6 µM [falling, single point] | 
Cn1c(=O)oc2cc(S(=O)(=O)NCCC(=O)N3CCN(c4ccccc4F)CC3)ccc21 | 22.5 | 23.1 µM [rising, single point] | 
C=CCC(NCc1ccccc1)c1ccc(Cl)cc1 (centres undefined) | -35.2 | 2.31 µM [falling, single point] | 25.9 µM [falling, partial curve]
O=C(C1CCN(S(=O)(=O)c2ccc(-n3cnnn3)cc2)CC1)N1CCN(c2ccccc2)CC1 | 74.9 |  | 29.1 µM [rising, single point]
O=C(OCn1nnc2ccccc2c1=O)C1CCCCC1 | -0.233 | 0.0116 µM [rising, full curve, poor fit] | 

SMILES | cell number change [%] | AC50 [1] | AC50 [2]
Cc1cc2ncn(CCC(=O)NC3CCCC3)c2cc1C | -30.5 |  | 
CNC(=O)NC(=O)CSc1cccc(C(F)(F)F)c1 |  | 0.092 µM [falling, full curve] | 
COC(=O)N/N=C/c1ccc(-c2cc(Cl)ccc2Cl)o1 | -21.9 | 20.6 µM [falling, single point] | 
CS(=O)(=O)c1ccc(Cl)c(C(=O)OCC(=O)NC2CCCCCCC2)c1 | 13.4 |  | 
CCc1cccc(C)c1NC(=O)c1cc(C)oc1C | -13.4 | 0.411 µM [rising, full curve, poor fit] | 
O=C(C1CCCN1C(=O)c1cccs1)N1CCc2ccccc21 (centres undefined) | -16 | 0.92 µM [rising, full curve, poor fit] | 
Clc1ccccc1CN(Cc1ccccc1)C(c1cccs1)c1nnnn1C1CCCC1 (centres undefined) | -34.8 | 1.84 µM [falling, partial curve] | 18.4 µM [falling, partial curve, poor fit]
CN(c1ccccc1C(=O)Nc1ccccc1C(=O)NCc1ccco1)S(C)(=O)=O | 1.14 | 10.3 µM [falling, partial curve] | 
COCCC(=O)N1CCC(Oc2ccc(C(=O)N(C)C3CCCCC3)cc2)CC1 | 8.39 | 6.51 µM [falling, single point] | 
O=C1NC2(CCCCO2)CO1 (centres undefined) | -6.89 | 9.2 µM [rising, partial curve, poor fit] | 
CN1CCc2c(sc3c2c(=O)n(-c2ccc(Cl)cc2)c2nncn32)C1 | -30.1 |  | 29.1 µM [falling, single point]
O=c1[nH]c2ccccc2n2c(-c3ccccc3)nnc12 | -24.2 | 0.00517 µM [falling, full curve, poor fit] | 
Cn1cnnc1SCC(=O)Nc1ccc2nc(SCc3cccc4ccccc34)sc2c1 | 121 | 9.2 µM [rising, partial curve] | 9.2 µM [rising, partial curve]
Cc1ccccc1C(=O)Nc1nc2c(C)csc2c(=O)s1 | 55.8 | 2.31 µM [rising, single point] | 5.17 µM [rising, partial curve]
Nc1nc(SCC(=O)N2CCc3ccccc32)[nH]c(=O)c1-c1ccccc1 | 3.17 |  | 
CC(=O)c1cc(F)c(N2CCN(C(=O)C(C)(C)C)CC2)cc1C | -74 | 29.1 µM [falling, partial curve, poor fit] | 18.4 µM [falling, single point]
Cc1ccc(C2CC(c3cccs3)n3nc(N)nc3N2)cc1 (centres undefined) | -0.897 | 29.1 µM [falling, single point] | 
CC(=O)NCc1ccc(C(=O)CCl)s1 |  | 14.6 µM [falling, partial curve] | 
Cc1noc(C)c1S(=O)(=O)N(CC(=O)Nc1ccc2c(c1)OCO2)c1ccc(C(C)C)cc1 | 19 | 1.64 µM [rising, partial curve] | 2.91 µM [rising, single point]
C=CCc1ccc(OCCOCCN(C)C)c(OC)c1 | -37.8 | 29.1 µM [falling, single point] | 29.1 µM [falling, single point]
COc1cc(OC)c(NC(=O)/C=C/C(=O)O)cc1Cl | 32.1 | 0.92 µM [rising, full curve] | 1.64 µM [rising, full curve]

Four consecutive records from above:
SMILES | cell number change [%] | AC50 [1] | AC50 [2]
CN(C(=O)COc1ccc(S(=O)(=O)N2CCOCC2)cc1[N+](=O)[O-])C1CCS(=O)(=O)C1 (centres undefined) | 17.4 | 2.31 µM [falling, partial curve] | 
O=C(Nc1ccc2c(c1)OCO2)C(c1ccc(Cl)cc1)N1CCC2(CC1)OCCO2 (centres undefined) | -28 | 20.6 µM [falling, single point] | 
Cn1c(=O)oc2cc(S(=O)(=O)NCCC(=O)N3CCN(c4ccccc4F)CC3)ccc21 | 22.5 | 23.1 µM [rising, single point] | 
C=CCC(NCc1ccccc1)c1ccc(Cl)cc1 (centres undefined) | -35.2 | 2.31 µM [falling, single point] | 25.9 µM [falling, partial curve]

Remaining list, next part.

SMILES | cell number change [%] | AC50 [1] | AC50 [2]
CSc1nc2ncc(C#N)cn2n1 | 34.9 |  | 
C/C(=N/NC(=O)Cc1ccccc1)c1ccc(C)s1 |  | 0.326 µM [rising, single point] | 
CN(C)S(=O)(=O)c1ccc(SCC(=O)N2CC(=O)Nc3ccccc32)nc1 | 14.7 | 25.9 µM [rising, single point] | 
COc1ccc(S(=O)(=O)CCC(=O)NCCc2cccc(C)c2)cc1 |  |  | 3.26 µM [rising, partial curve]
N#C/C(=C\c1cccc(O)c1)C(=O)N1CCCCC1 | -27.9 | 14.6 µM [falling, partial curve, poor fit] | 
CSc1ccc(/C=N/N2CCN(C)CC2)cc1 | 10.4 | 0.517 µM [falling, partial curve, poor fit] | 
CC(C)(C)NC(=O)CN(C(=O)CCC(=O)Nc1nccs1)c1ccc2c(c1)OCCO2 | 21.4 | 6.51 µM [rising, single point] | 
CCSC1=C(C#N)C2(CCCC2)C(C#N)=C(N)N1 | -41.2 |  | 32.6 µM [falling, single point]
CCc1noc(C)c1C(=O)NNC(=O)c1cc(OC)cc(OC)c1 | -38.2 | 32.6 µM [falling, partial curve, poor fit] | 32.6 µM [falling, partial curve, poor fit]
Cc1ccc(NC(=O)NC(=O)c2cnccc2C(F)(F)F)c(C)c1 | -51.7 | 18.4 µM [falling, single point] | 14.6 µM [falling, single point]
Cc1cc(N2CCCC2)nc(N2C3CCC2CC(O)(c2ccc(F)cc2)C3)n1 (centres undefined) | 4.3 | 0.517 µM [falling, single point] | 
Cc1ccc(NC(=O)NC2CCCCC2)c(C)c1 | -14.3 | 6.51 µM [rising, partial curve, poor fit] | 
Cc1nc(Oc2ccccc2)c2oc3ccccc3c2n1 | 154 | 7.31 µM [rising, partial curve] | 9.2 µM [rising, partial curve]
N/C(=N\OC(=O)c1ccc(Cl)cc1)c1cccnc1 | 4.34 |  | 
CCNC(=S)N1CCN(CC(=O)Nc2ccc(OC)cc2)CC1 | 22.6 |  | 
Cn1c(=O)c(=O)n(C)c2cc(S(=O)(=O)N3CCN(C4CCCCC4)CC3)ccc21 | -31.3 | 32.6 µM [falling, single point] | 29.1 µM [falling, single point]
CN(C)CCCNc1oc(-c2ccc(Cl)cc2)nc1C#N | -31 | 10.3 µM [falling, single point] | 20.6 µM [falling, single point]
CCOC(=O)C1CCN(C(=O)c2ccccc2Oc2ccccc2)CC1 | -0.129 |  | 
CC(C)(C)c1cc(C(=S)N2CCCC2)cc(C(C)(C)C)c1O | 12.1 | 14.6 µM [falling, single point] | 
